Data as given in PubChem BioAssay AID504791 (Drosophila RNAi Screening Center, 2011).

- Purpose: 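Genes of the fly required for silencing by miRNA, siRNA or endo-siRNA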 (primary screen)
- System: Drosophila S2-derived reporter cells
- Reagents: long dsRNA against Drosophila genes, about 150-250 ng dsRNA per well (siRNA assay); about 80-120 ng (miRNA assay)
- Duration: about 5 days (siRNA assay); about 4 days (miRNA assay)
- Challenge: copper sulfate induction of reporters: 25 µM (siRNA assay); 200 mM stated (miRNA assay), 1-2 days before reading
- Read-out: 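Dual luciferase assay: Renilla to firefly signal ratio in each well, scaled to the mean ratio of its plate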
- Direction: siRNA reporter hit score: higher = 3 marks a strong hit with raised ratio; -3 a strong hit with lowered ratio
- Call rule: 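First-pass picks had plate-scaled ratios over 1.5 for the siRNA assay, over 1.6 for the miRNA assay, or under 0.6; two distinct dsRNAs had to score alike on retest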
In all, the deposit lists about 23,000 reagents; this is an unselected part of those that have a named target and a result. Of all reagents, 199 (0.86%) got an active call. 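Plate-scaled ratios behind the calls are not deposited; printed light signals are raw; many rows marked increased or decreased are still called inactive.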 A number with no mark means an inactive call. Reagents against one gene are numbered here. Names joined by + are all predicted targets of the reagent. Further read-outs or replicates are left out here.

| gene | reagent | siRNA reporter hit score | stable siRNA reporter change | stable assay Renilla, run 1 (luminescence) |
| --- | --- | --- | --- | --- |
| ASPP (GeneID 37422) | 1 | – | reporter ratio raised past the hit cutoff | 6306 |
| ASPP (GeneID 37422) | 2 | – | reporter ratio raised past the hit cutoff | 5914 |
| CG14625 (GeneID 31066) | 1 | – | – | 6958 |
| Hsp67Bc (GeneID 39071) | 1 | – | – | 7336 |
| Ubc2 (GeneID 34487) | 1 | – | – | 5559 |
| Ubc2 (GeneID 34487) | 2 | – | – | 7248 |
| mrt (GeneID 43291) | 1 | – | – | 6356 |
| AP-1sigma (GeneID 42835) | 1 | – | – | 8787 |
| Mvl (GeneID 42490) | 1 | – | – | 6956 |
| bab1 (GeneID 38116) | 1 | – | – | 4160 |
| bab1 (GeneID 38116) | 2 | – | – | 6767 |
| bab1 (GeneID 38116) | 3 | – | – | 8310 |
| snoRNA:Me28S-A982b + Uhg4 + snoRNA:Me28S-G3255a + 1 more | 1 | – | – | 5600 |
| CG32313 (GeneID 317973) | 1 | – | – | 10015 |
| PolD3 (GeneID 34892) | 1 | – | – | 2.03e5 |
| Crag (GeneID 31800) | 1 | – | – | 8610 |
| CG13744 (GeneID 35906) | 1 | – | – | 5692 |
| CG9497 (GeneID 33884) | 1 | – | – | 13939 |
| Dpit47 (GeneID 35565) | 1 | – | – | 6491 |
| Gclm (GeneID 248194) | 1 | – | – | 13642 |
| Obp56g (GeneID 37270) | 1 | – | – | 5580 |
| CG33914 (GeneID 3772464) | 1 | – | – | 5478 |
| geminin (GeneID 35563) | 1 | – | – | 4592 |
| cora (GeneID 37205) | 1 | – | – | 5895 |
| CG4101 (GeneID 39857) | 1 | – | – | 6610 |
| CG13516 (GeneID 3885599) | 1 | – | – | 6208 |
| Sam-S (GeneID 48552) | 1 | – | – | 11226 |
| Elk (GeneID 37047) | 1 | – | – | 13954 |
| CG42506 (retired record) + CG43759 | 1 | – | – | 8071 |
| CG42506 (retired record) + CG43759 | 2 | – | – | 5987 |
| CG31008 (GeneID 318554) | 1 | – | – | 6371 |
| Dup99B (GeneID 2768691) | 1 | – | – | 4727 |
| TwdlL (GeneID 43203) | 1 | – | reporter ratio raised past the hit cutoff | 31525 |
| PIP4K (GeneID 3885565) | 1 | – | – | 6403 |
| Prp18 (GeneID 42285) | 1 | – | – | 9296 |
| CG8613 (GeneID 36593) | 1 | – | – | 8014 |
| CG9928 (GeneID 34704) | 1 | – | – | 6944 |
| mre11 (GeneID 34565) | 1 | – | – | 47924 |
| mre11 (GeneID 34565) | 2 | – | – | 3499 |
| Prp4k (GeneID 38032) | 1 | – | – | 8064 |
| CG5910 (GeneID 40264) | 1 | – | – | 7356 |
| veg (retired record) (GeneID 44057) | 1 | – | – | 6386 |
| Diap1 (GeneID 39753) | 1 | 3 | – | 4503 |
| CG34227 (GeneID 36186) | 1 | – | – | 6119 |
| CG34227 (GeneID 36186) | 2 | – | – | 5943 |
| AQP (GeneID 36456) | 1 | – | – | 5754 |
| tor (GeneID 35717) | 1 | – | – | 6350 |
| RacGAP84C (GeneID 117503) | 1 | – | – | 7440 |
| DIP-gamma (GeneID 43417) | 1 | – | – | 7695 |
| vir (GeneID 47869) | 1 | – | – | 7490 |
| CG13405 (GeneID 38016) | 1 | – | – | 6215 |
| Eig71Ee (GeneID 39706) | 1 | – | – | 8591 |

An excerpt from above, limited to “stable assay Renilla, run 1 (luminescence)”:
mre11 (GeneID 34565) #2	3499
Prp4k (GeneID 38032)	8064
CG5910 (GeneID 40264)	7356
veg (retired record) (GeneID 44057)	6386
Diap1 (GeneID 39753)	4503

Additional records:
| gene | reagent | siRNA reporter hit score | stable siRNA reporter change | stable assay Renilla, run 1 (luminescence) |
| --- | --- | --- | --- | --- |
| CG1208 (GeneID 40727) | 1 | – | – | 8531 |
| Shal (GeneID 40129) | 1 | – | – | 4787 |
| Shal (GeneID 40129) | 2 | – | – | 6334 |
| CG1889 + CG43386 | 1 | – | – | 4979 |
| GstZ1 (GeneID 41132) | 1 | – | – | 7850 |
| CG7290 (GeneID 40211) | 1 | – | – | 7242 |
| CG34167 (GeneID 5740831) | 1 | – | – | 5280 |
| CG17298 (GeneID 42529) | 1 | – | – | 7295 |
| ALiX (GeneID 43330) | 1 | – | – | 7910 |
| MED14 (GeneID 38073) | 1 | – | – | 6636 |
| Tet (GeneID 38347) | 1 | – | – | 11231 |
| CG31562 (retired record) (GeneID 40753) | 1 | – | – | 6862 |
| CG31562 (retired record) (GeneID 40753) | 2 | – | – | 7043 |
| Tsp42Eh (GeneID 35617) | 1 | – | – | 6278 |
| miple2 (GeneID 44787) | 1 | – | – | 7102 |
| CG11698 (GeneID 40986) | 1 | – | – | 4955 |
| CG2811 (GeneID 37988) | 1 | – | – | 7022 |
| CG4835 (GeneID 38619) | 1 | – | reporter ratio raised past the hit cutoff | 5690 |
| CG17028 (GeneID 39741) | 1 | – | – | 8606 |
| CG34171 (GeneID 5740474) | 1 | – | – | 6191 |
| tos (GeneID 35119) | 1 | – | – | 7050 |
| spirit (GeneID 31797) | 1 | – | – | 7174 |
| mei-W68 (GeneID 2768853) | 1 | – | – | 7419 |
| boca (GeneID 48986) | 1 | – | – | 6271 |
| CG34196 (GeneID 5740437) | 1 | – | – | 5760 |
| cyr (GeneID 31733) | 1 | – | – | 4966 |
| cyr (GeneID 31733) | 2 | – | – | 5435 |
| cyr (GeneID 31733) | 3 | – | – | 6007 |
| Ugt302K1 (GeneID 53502) | 1 | – | – | 5726 |
| CG32199 (GeneID 40028) | 1 | – | – | 8239 |
| CG17196 (GeneID 43112) | 1 | – | – | 7630 |
